Publication PMC12671168, “The signal peptide of staphylococcal protein A alters the multimeric states of PepV” (Microbiology Spectrum, 2025)

Molecular target: PepV (Staphylococcus aureus), recombinant His-PepV (Staphylococcus aureus)
Assay: SEC; purified PepV alone or incubated with a 10-fold molar excess of peptide; Agilent SEC-3 or TSKgel Super2000 on HPLC; 0.5 M HEPES pH 7.6, 150 mM NaCl; 0.35 mL/min; absorbance at 280 nm; both purified

Binder	binding
MKKKNIYSIRKLGVGIASVTLGTL [24 peptide (portion of the SpA SP)]	binds
MKKKNIYSIRKLGVGIASVTLGTLLISGGVTPAANA [SpA SP (signal peptide of staphylococcal protein A)]	binds

These are yes or no findings as the source states them, for the method shown. Binding calls can cover weak binding; strength is not graded here.
